Values quoted from earlier work as cited in US12329745B2, “Methods and compositions for treating glucocorticoid excess” (Sparrow Pharmaceuticals, Inc., priority 2022, dated 2025).
Some entries share one result that the patent states for a list of compounds. At least one compound was matched to its structure with a doubt left.

Conditions: human, in vivo; cited from earlier work

Compound	effective dose range	daily doses required to show efficacy
CC(C)(C(=O)N[C@H]1C2CC3CC1C[C@@](C(N)=O)(C3)C2)N1CCN(c2ccc(C(F)(F)F)cn2)CC1 [ABT-384, (1s,3R,4r,5S,7s)-4-(2-methyl-2-(4-(5-(trifluoromethyl)pyridin-2-yl)piperazin-1-yl)propanamido)adamantane-1-carboxamide]	below 10 mg daily	–
CNC(=O)c1ccc(-c2ccc(C3(C(=O)N4CC[C@@]5(C4)OC(=O)c4ccccc45)CC3)cc2)cn1 [INCB-13739]	–	≥ 100 mg
CCS(=O)(=O)CCCC12CCC(c3nnc(-c4ccccc4C(F)(F)F)n3C)(CC1)CC2 [MK-0736, 3-(4-(3-(ethylsulfonyl)propyl)bicyclo[2.2.2]octan-1-yl)-4-methyl-5-(2-(trifluoromethyl)phenyl)-4H-1,2,4-triazole]	below 10 mg daily	–
F[C@H]1C[C@@](c2ccc(Cl)cc2)(c2nnc(C3CC3)n2C2CC2)C1 [MK-0916, 3-((1s,3s)-1-(4-chlorophenyl)-3-fluorocyclobutyl)-4,5-dicyclopropyl-4H-1,2,4-triazole]	below 10 mg daily	–
